We go through two compounds from article PMC7594953 (Acta Pharmacologica Sinica, 2020).

One data set relates to SARS-CoV-2. As to conditions: read-out: EC50 of clemastine by viral NP staining method; cited from earlier work.
A further data set has as its system SARS-CoV S pseudovirus. Briefly: microbe, parasite or virus in culture. Type of data set: cell-based. Conditions: Severe acute respiratory syndrome coronavirus; for EC50: Huh-7, read-out: SARS-CoV S pseudovirus EC50.
For a further data set, the system named is VSV-G pseudovirus. The data set is described as follows: microbe, parasite or virus in culture. Type of data set: cell-based. Conditions: Huh-7, read-out: VSV-G pseudovirus EC50.
For data set [1], the system named is SARS2-S pseudovirus. Briefly: in vitro. As to conditions: human.
Data set [2] deals with SARS2-S pseudovirus. The data set is described as follows: microbe, parasite or virus in culture. Conditions: Huh-7, 48 h; for EC50: read-out: SARS2-S pseudovirus EC50.
A further data set in a line: in vitro. Conditions: human.
A further data set concerns SARS-CoV-2 (WIV04). Type of data set: cell-based.

Take `CN1CCC[C@@H]1CCO[C@](C)(c1ccccc1)c1ccc(Cl)cc1` [Clemastine]: the EC50 with SARS-CoV-2 is around 2.3 µM; in the data set with SARS-CoV S pseudovirus, 1.79 ± 0.32 µM; in the data set on VSV-G pseudovirus it was 10.5 µM; in the data set with SARS2-S pseudovirus [2], 0.81 µM. For the same compound, the EC90 with SARS-CoV S pseudovirus (Huh-7, read-out: SARS-CoV S pseudovirus EC90) turned out to be 12.4 ± 1.24 µM; in the data set with SARS2-S pseudovirus [2] (read-out: SARS2-S pseudovirus EC90) it was 4.34 µM. The selectivity ratio with SARS2-S pseudovirus [1] was found to be 7.96. Moreover, the results for the CC50 in the data set “in vitro” (Huh7 CC50) and in the data set “in vitro” (Huh-7 CC50) were 5.9 µM and 6.6 ± 1.48 µM, respectively. Also, in the data set with SARS-CoV-2 (WIV04), the “Activity against native SARS-CoV-2 replication (in words)” value is reported as “significantly inhibited SARS2 replication”.
For the compound `CCCCc1oc2ccccc2c1C(=O)c1cc(I)c(OCCN(CC)CC)c(I)c1` [Amiodarone], the EC50 in the data set on SARS-CoV S pseudovirus came out at 0.6 ± 0.37 µM; with VSV-G pseudovirus, 11.3 µM; in the data set with SARS2-S pseudovirus [2] it was 0.21 µM.

One may read the EC50 as the midpoint of the concentration-response curve. The term EC90 denotes the concentration at which the effect reaches the 90% level.
